Measurements from the supplement of paper PMC12067093, “Discovery and optimisation of a covalent ligand for TRIM25 and its application to targeted protein ubiquitination” (Chemical Science, 2025).
Some of the results follow.

Sequences of proteins named here, by UniProt entry; tags and fusion partners are left off. A change or cut given only in a name is not applied to a line headed by its entry.
UniProt P52272: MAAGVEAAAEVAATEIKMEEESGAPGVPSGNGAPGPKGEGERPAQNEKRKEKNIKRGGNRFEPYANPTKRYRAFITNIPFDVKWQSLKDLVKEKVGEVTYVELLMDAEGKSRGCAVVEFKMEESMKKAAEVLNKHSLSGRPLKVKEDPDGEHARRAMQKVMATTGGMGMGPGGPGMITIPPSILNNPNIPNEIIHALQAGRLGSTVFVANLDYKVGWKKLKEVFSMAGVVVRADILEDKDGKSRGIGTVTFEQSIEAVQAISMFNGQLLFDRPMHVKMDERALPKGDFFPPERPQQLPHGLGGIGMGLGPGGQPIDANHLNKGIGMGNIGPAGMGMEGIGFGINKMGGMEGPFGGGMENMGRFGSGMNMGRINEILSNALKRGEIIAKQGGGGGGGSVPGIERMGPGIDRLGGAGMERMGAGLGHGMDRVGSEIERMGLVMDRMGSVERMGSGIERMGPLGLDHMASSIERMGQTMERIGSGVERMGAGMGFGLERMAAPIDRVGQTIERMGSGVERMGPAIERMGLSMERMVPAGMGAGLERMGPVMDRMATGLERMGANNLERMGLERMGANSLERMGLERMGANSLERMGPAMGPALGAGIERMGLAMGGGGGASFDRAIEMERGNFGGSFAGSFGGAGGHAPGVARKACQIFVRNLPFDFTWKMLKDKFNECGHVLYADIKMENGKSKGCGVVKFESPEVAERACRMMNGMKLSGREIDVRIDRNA
UniProt Q99714: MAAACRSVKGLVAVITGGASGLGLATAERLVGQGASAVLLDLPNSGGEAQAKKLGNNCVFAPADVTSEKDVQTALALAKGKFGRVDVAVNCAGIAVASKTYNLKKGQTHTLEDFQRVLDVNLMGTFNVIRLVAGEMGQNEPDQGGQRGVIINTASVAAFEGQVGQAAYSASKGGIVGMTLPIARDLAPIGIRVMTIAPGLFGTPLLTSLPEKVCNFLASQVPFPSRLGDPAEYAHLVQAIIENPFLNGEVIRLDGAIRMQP
UniProt P42858, whole entry, looked up: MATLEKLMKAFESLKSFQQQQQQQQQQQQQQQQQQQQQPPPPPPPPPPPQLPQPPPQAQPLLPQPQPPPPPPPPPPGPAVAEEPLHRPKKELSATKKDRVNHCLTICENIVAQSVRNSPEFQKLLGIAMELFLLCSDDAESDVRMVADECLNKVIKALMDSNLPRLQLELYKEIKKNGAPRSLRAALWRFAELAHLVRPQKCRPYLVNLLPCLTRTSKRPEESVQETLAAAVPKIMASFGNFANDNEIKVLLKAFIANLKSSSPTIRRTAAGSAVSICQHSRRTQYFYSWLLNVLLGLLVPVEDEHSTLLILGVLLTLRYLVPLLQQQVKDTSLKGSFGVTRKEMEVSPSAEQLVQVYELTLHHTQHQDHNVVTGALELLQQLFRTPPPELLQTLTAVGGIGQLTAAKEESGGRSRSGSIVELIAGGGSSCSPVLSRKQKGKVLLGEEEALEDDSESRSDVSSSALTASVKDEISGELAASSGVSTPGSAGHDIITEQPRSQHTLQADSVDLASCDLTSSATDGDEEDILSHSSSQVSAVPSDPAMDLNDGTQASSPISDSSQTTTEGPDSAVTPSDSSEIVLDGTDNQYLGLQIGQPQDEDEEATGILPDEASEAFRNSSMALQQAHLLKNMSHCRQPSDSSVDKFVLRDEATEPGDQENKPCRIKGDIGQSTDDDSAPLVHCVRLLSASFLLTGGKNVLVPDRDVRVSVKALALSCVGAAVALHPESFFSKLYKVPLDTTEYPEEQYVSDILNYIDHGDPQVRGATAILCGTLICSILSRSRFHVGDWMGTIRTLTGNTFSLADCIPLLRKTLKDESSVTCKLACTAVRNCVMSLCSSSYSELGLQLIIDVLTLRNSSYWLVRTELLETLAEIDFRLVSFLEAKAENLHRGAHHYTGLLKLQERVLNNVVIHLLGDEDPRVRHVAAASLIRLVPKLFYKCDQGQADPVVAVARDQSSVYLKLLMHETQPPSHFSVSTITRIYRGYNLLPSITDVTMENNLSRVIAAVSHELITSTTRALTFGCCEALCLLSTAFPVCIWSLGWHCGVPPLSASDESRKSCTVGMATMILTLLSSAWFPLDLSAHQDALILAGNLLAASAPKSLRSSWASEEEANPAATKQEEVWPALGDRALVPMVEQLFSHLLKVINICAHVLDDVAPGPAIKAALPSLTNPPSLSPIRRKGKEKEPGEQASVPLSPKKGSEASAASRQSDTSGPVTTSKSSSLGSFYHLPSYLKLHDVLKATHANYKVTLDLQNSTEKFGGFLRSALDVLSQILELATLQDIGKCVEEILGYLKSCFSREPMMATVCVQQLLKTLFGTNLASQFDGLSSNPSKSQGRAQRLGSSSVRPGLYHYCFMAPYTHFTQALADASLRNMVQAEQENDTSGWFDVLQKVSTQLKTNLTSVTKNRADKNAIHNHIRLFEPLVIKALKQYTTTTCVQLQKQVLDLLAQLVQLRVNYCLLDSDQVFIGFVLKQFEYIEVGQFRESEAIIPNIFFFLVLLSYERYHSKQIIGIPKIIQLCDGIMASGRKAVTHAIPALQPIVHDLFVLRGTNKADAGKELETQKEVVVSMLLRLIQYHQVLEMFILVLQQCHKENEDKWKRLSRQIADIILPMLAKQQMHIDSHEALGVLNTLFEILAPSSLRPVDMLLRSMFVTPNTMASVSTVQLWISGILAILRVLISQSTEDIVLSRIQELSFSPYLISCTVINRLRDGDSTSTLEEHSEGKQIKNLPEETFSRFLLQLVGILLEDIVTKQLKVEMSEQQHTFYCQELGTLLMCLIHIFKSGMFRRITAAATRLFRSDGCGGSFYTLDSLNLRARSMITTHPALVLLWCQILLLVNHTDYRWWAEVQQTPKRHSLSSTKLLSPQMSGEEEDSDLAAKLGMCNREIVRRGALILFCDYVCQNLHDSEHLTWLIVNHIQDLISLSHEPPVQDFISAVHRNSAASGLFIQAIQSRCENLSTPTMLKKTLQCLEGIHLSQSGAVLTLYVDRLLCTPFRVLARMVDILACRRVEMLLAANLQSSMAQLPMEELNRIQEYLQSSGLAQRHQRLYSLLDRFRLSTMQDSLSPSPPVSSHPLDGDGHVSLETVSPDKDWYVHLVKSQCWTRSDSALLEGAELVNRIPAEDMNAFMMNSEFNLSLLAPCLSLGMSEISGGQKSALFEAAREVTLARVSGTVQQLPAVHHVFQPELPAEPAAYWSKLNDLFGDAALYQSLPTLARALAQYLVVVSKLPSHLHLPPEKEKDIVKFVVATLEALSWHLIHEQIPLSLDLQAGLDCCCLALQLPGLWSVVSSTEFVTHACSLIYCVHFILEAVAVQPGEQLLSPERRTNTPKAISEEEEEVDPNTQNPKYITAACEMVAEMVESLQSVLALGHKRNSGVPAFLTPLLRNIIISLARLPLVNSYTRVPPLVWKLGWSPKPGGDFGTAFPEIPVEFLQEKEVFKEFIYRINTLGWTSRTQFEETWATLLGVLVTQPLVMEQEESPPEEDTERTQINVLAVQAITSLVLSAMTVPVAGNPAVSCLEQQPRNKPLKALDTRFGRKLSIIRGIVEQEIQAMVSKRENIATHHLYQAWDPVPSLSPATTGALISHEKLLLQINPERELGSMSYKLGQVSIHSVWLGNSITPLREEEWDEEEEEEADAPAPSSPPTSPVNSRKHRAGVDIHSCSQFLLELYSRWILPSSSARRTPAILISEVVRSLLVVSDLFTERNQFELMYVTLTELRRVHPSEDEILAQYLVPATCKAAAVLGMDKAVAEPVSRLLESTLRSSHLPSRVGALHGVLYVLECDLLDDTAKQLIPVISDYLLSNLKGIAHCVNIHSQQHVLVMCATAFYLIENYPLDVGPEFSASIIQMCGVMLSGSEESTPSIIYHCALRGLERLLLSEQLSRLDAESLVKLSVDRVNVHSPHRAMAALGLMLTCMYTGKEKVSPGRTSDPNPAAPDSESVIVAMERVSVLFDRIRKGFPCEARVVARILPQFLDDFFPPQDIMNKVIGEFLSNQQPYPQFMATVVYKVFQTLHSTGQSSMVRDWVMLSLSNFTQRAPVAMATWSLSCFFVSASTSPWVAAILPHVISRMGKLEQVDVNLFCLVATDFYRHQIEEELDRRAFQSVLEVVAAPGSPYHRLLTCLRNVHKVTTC
UniProt Q6YN16: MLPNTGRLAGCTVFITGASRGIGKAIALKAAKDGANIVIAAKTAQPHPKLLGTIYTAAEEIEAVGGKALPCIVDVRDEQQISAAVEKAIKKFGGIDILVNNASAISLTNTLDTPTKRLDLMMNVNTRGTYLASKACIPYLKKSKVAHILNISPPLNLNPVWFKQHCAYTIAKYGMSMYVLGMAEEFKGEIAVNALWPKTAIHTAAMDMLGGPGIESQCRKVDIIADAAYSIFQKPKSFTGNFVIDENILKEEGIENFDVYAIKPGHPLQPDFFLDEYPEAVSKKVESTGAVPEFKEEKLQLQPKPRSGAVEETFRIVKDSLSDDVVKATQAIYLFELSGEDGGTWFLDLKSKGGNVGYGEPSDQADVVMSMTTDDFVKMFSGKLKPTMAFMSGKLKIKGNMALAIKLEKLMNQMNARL
UniProt Q8WVV9: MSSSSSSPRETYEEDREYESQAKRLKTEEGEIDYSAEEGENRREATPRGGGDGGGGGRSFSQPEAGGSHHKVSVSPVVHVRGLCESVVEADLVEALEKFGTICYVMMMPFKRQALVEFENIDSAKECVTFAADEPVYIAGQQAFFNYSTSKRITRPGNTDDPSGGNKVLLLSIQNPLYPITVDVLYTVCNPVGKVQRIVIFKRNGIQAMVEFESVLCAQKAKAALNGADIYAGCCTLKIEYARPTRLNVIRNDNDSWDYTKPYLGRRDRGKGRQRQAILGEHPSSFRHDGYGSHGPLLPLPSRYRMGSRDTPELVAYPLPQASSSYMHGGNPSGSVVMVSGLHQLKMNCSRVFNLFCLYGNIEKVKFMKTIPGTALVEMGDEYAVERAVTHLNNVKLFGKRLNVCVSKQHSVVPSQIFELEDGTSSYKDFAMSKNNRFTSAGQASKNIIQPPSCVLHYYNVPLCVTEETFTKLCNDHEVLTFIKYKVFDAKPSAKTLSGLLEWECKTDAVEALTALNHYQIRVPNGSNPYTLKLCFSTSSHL
UniProt P34932: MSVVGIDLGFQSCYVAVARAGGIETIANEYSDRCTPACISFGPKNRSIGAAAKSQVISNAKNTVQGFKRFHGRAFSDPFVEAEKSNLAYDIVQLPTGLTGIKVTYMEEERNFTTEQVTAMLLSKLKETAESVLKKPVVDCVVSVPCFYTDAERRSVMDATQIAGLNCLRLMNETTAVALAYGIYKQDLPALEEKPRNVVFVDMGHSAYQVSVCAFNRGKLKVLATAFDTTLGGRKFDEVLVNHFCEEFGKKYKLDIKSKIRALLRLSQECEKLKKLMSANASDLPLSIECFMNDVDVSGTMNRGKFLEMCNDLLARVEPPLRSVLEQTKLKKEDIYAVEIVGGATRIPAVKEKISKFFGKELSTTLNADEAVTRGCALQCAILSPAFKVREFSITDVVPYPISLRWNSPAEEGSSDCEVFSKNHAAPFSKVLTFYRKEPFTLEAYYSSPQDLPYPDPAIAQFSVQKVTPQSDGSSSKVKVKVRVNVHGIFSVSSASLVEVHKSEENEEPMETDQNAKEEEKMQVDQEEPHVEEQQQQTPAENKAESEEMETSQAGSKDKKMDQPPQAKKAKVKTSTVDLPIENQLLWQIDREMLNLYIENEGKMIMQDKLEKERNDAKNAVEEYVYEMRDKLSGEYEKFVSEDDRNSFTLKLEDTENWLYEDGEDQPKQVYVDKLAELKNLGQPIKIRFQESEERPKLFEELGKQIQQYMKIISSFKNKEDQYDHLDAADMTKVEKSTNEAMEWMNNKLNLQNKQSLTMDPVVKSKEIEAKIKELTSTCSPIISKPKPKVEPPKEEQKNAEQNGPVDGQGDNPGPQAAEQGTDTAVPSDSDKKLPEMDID
UniProt P11021: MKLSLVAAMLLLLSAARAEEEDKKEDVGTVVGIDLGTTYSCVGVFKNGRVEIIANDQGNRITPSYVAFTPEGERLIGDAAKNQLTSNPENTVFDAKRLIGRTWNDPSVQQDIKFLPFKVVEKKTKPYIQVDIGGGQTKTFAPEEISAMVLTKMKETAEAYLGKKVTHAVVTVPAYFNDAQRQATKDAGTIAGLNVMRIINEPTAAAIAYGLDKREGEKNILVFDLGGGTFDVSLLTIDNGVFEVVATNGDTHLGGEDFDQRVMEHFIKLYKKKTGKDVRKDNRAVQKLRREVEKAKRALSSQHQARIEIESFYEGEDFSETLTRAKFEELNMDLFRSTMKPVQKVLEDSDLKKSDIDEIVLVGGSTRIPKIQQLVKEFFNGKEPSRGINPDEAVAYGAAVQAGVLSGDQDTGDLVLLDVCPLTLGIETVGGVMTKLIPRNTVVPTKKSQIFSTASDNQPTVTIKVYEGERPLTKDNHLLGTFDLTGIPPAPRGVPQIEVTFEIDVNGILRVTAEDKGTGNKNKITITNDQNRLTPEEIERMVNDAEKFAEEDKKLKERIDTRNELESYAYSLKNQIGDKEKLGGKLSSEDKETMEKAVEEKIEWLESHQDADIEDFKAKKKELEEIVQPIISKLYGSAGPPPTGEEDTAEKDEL

What follows are targets tested with Cc1cc(ccc1-c1ccccc1)C(=O)N1CCCN(CC1)C(=O)CCl [compound 10] (assay: probe-labelled cysteine peptide fold change vs DMSO (competition) (log2 fold change); higher = less target engagement (more negative = stronger competition)). Details: 50 µM; THP-1; incubation time: 4 h.
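Also: competitive profiling in live THP-1 cells: cysteine peptides tagged with an iodoacetamide desthiobiotin (IA-DTB) probe, intensity after compound treatment relative to DMSO-treated cells.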

Target	probe-labelled cysteine peptide fold change
HNRNPM_P52272_114_GCAVVEFK (UniProt P52272)	0.0923
HNRNPA1_P09651_43_SHFEQWGTLTDCVVMR (UniProt P09651)	0.121
HSP90AA1_P07900_420_CLELFTELAEDK (UniProt P07900)	0.0245
HSD17B10_Q99714_91_FGRVDVAVNCAGIAVASK (UniProt Q99714)	-0.288
HSP90AA1_P07900_529_KHGLEVIYMIEPIDEYCVQQLK (UniProt P07900)	-0.172
HTT_P42858_202_CRPYLVNLLPCLTR (UniProt P42858)	-0.0374
HSD17B10_Q99714_58_LGNNCVFAPADVTSEK (UniProt Q99714)	0.118
HNRNPU_Q00839_389_TCNCETEDYGEK (UniProt Q00839)	0.644
HSDL2_Q6YN16_166_QHCAYTIAK (UniProt Q6YN16)	-0.063
HSDL2_Q6YN16_218_TAIHTAAMDMLGGPGIESQCR (UniProt Q6YN16)	-0.321
HNRNPLL_Q8WVV9_357_VFNLFCLYGNIEK (UniProt Q8WVV9)	0.116
HNRNPA0_Q13151_49_CFGFVTYSNVEEADAAMAASPHAVDGNTVELKR (UniProt Q13151)	-0.355
HSD17B7_P56937_158_ELEPLLCHSDNPSQLIWTSSR (UniProt P56937)	0.329
HP1BP3_Q5SSJ5_359_TCSTTALK (UniProt Q5SSJ5)	0.02
HSPA14_Q0VDF9_492_DGSLHVTCTDQETGK (UniProt Q0VDF9)	-0.00701
HTT_P42858_636_NMSHCR (UniProt P42858)	-0.373
HNRNPUL1_Q9BUJ2_391_AEPYCSVLPGFTFIQHLPLSER (UniProt Q9BUJ2)	-0.129
HSPA4_P34932_140+146_KPVVDCVVSVPCFYTDAER (UniProt P34932)	0.118
HSPA5_P11021_41_EDVGTVVGIDLGTTYSCVGVFK (UniProt P11021)	0.632
HSPA4_P34932_779_ELTSTCSPIISKPKPK (UniProt P34932)	-0.751
